Measured values as given in article PMC8991960 (Angewandte Chemie (International Ed. in English), 2021).
Some peptides are written in HELM: one residue between dots, names in brackets for other building blocks, links after the first $.

Assay: general procedure: Fmoc solid-phase peptide synthesis; 2-chlorotrityl polystyrene resin (0.7 mmol g-1); COMU/OxymaPure/DIPEA; PyOxim/DIPEA extra coupling for Arg(Alloc)2
Conditions: whole synthesis

## PEPTIDE1{R.K.K.W.F.[Trp(redBODIPY)].G}$PEPTIDE1,PEPTIDE1,1:R1-7:R2$$$V2.0
  isolated mass: 4.0 mg
HPLC-MS (diode array and ESI MS detector), scale of the general procedure 20.1 mg resin
  final LC-MS purity: 97% purity
overall, scale of the general procedure 20.1 mg resin
  isolated yield: 22% overall yield
